A negative result means that nothing was seen under these conditions. Where a protein sequence is shown, tags need not be part of it.
How the values were obtained:
Assay in all cases: EMSA
[1] = test system: T1, E3 ELP [(VPGXG)10-GKG]8 (synthetic construct); settings: pH 6 citrate/Na2HPO4, room temperature, below Tt, up to 1000 uM E3; no appreciable binding; purified recombinant protein; single-stranded DNA
T1 sequence: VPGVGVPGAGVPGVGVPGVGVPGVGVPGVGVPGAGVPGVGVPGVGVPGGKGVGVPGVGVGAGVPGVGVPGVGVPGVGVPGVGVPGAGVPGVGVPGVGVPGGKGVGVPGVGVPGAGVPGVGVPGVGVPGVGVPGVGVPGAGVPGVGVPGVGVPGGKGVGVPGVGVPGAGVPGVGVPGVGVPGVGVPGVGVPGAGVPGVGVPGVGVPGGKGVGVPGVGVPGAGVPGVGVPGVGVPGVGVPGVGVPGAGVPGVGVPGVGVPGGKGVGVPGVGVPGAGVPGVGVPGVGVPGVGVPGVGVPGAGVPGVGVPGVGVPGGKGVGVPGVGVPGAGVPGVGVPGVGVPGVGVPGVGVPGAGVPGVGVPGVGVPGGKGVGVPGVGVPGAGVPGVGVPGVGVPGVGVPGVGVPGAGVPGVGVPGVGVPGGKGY

[2] = test system: T2, H-24 His-ELP (synthetic construct); settings: pH 9 100 mM Tris 4 C at 100 uM; also none at pH 8 with 300 mM NaCl; purified recombinant protein; single-stranded DNA
T2 sequence: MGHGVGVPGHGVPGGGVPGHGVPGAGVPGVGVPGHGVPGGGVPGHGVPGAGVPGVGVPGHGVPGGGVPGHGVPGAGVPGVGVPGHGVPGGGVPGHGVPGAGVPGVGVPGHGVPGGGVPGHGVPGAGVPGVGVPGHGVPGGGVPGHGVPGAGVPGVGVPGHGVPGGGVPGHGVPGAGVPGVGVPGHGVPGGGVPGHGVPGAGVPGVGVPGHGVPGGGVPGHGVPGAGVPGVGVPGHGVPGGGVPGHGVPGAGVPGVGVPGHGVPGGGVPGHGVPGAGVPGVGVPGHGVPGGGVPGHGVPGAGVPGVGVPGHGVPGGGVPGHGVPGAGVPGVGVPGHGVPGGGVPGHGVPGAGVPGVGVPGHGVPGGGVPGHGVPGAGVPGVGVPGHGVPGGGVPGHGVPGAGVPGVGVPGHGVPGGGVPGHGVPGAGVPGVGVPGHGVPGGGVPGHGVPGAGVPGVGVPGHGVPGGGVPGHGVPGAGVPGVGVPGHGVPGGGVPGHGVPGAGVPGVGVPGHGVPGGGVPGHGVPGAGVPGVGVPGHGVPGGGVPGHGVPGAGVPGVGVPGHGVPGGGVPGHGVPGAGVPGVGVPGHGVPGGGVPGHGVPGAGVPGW

[3] = test system: T3, H-20 His-ELP (synthetic construct); settings: pH 9 100 mM Tris 4 C at 100 uM; also none at pH 8 with 300 mM NaCl; purified recombinant protein; single-stranded DNA
T3 sequence: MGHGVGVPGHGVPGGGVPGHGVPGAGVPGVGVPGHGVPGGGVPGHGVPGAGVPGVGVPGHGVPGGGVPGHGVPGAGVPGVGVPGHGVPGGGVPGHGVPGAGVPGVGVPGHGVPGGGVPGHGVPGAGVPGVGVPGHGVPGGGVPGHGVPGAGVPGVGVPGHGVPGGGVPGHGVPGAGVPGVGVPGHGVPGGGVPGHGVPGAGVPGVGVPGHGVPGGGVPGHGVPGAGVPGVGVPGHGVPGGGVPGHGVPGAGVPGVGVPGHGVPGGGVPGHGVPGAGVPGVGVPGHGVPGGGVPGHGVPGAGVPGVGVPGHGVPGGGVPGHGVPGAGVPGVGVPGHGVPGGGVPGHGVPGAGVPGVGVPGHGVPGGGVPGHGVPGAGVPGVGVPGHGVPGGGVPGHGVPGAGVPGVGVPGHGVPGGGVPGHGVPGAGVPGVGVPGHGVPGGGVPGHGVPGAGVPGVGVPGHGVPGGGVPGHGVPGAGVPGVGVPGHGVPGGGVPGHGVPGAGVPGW

Measured: binding result

TTTTTCCTAGAGAGTAGAGCCTGCTTCG [ssDNA 28 nt]
no binding: all assays above

From US20230407367, “INTRINSICALLY DISORDERED PROTEINS FOR EXTRACTION OF NUCLEIC ACIDS” (published 2023)
